According to patent US11498943B2, “Amyloid inhibitory peptides” (TECHNISCHE UNIVERSITÄT MÜNCHEN, priority 2018, dated 2022):
Entries after “also recorded” stand apart in the source; their conditions may differ. For part of these data: Part of at least one peptide drawing is inferred or uncertain, most often the ends. For part of these data: At least one compound was matched to its structure with a doubt left. Where a SMILES comes first, the peptide text is derived from it. Bridges are numbered along the chain shown (N, C = ends). [ ]: non-standard residue; d: D form. NMeI = CC[C@H](C)[C@H](NC)C(=O)O; Sar = CNCC(=O)O

Amino acid sequences for entries named in this document (tags omitted). Residues count along the entry.
UniProt P05067, 672-711: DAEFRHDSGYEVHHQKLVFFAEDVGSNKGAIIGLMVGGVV

Columns and labels:
Aβ40 [1] = molecular target: T1, Aβ40 (Homo sapiens, UniProt P05067); experiment: Aβ40 fibrillogenesis by ThT binding, confirmed by TEM, with cell damage by MTT reduction; format: biochemical; conditions: Aβ40 16.5 μM, MTT in PC12 cells
T1 construct: Aβ40 (TFA salt) was synthesized by Fmoc-based solid phase synthesis (SPPS); made in house; host or cells: chemical synthesis (Fmoc SPPS on Tentagel R PHB resin)
Method: (§1) Thioflavin T (ThT) Binding Assays
(§2) At indicated time points, aliquots were gently mixed with a ThT solution (20 μM ThT in 0.05 M glycine/NaOH, pH 8.5); ThT binding was determined immediately by measuring fluorescence emission at 486 nm upon excitation at 450 nm using a 2030 Multilabel Reader VictorX3 (PerkinElmer Life Sciences). Effects of peptides added at specific pre- and post-nucleation time points of Aβ40 amyloidogenesis were studied by adding aliquots of Aβ40 solutions (16.5 μM; incubation conditions as above) aged for the indicated time points to the peptide (in dry form) as previously described and ThT binding was determined as above.
(§3) 10 μl aliquots of solutions of the ThT binding and MTT assays were applied on carbon-coated grids at indicated time points, washed with distilled water and stained with aqueous 2% (w/v) uranyl acetate as described. Grids were examined using a JEOL JEM 100CX (at 100 kV) or a JEOL 1400 Nus electron microscope (at 120 kV).
(§4) Both cell lines were cultured and plated in 96-well plates as described. […] Following incubation with the cells for ˜20 h (37° C., humidified atmosphere with 5% CO2), the MTT reduction assay was used to assess cell damage/metabolic activity as previously described.

Aβ40 [2] = molecular target: T1, Aβ40; experiment: MTT reduction assay: IC50 of inhibitory effect on cell-damaging amyloid self-assembly of Aβ40 (PC12 cells); format: cell-based; conditions: read-out: IC50 (±SD) (nM) Aβ40 inhibition, Aβ40 500 nM, 72 h-aged solutions, means (±SD) from 3-4 titration assays
Method: (§5) Assessment of Cell Damage by MTT Reduction Assay
as §4

IAPP [3] = molecular target: T2, IAPP (Homo sapiens, UniProt P10997); experiment: MTT reduction assay: IC50 of inhibitory effect on cell-damaging amyloid self-assembly of IAPP (RIN5fm cells); conditions: read-out: IC50 (±SD) (nM) IAPP inhibition, IAPP 100 nM, 24 h-aged solutions, means (±SD) from 3-4 titration assays
T2 sequence (P10997 34-70 limits assumed): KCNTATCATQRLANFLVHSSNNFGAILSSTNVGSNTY
Method: as §5, §4

[4] = test system: Aβ42-induced LTP impairment in murine acute hippocampal slices; experiment: Hippocampal long-term potentiation (LTP) measurements (ex vivo); conditions: Aβ42 50 nM, peptide 500 nM, ex vivo mouse hippocampal slices
IAPP [5] = molecular target: T2, IAPP; experiment: IAPP fibrillogenesis by ThT binding, confirmed by TEM, with cell damage by MTT reduction; format: biochemical; parameters: IAPP was synthesized by SPPS and the Fmoc-strategy on RINK resin, subjected to air oxidation and purified by RP-HPLC; made in house; host or cells: chemical synthesis (Fmoc SPPS on RINK resin, air oxidation); conditions: IAPP 6 μM, MTT in RIN5fm cells
Method: as §1, §2, §3, §4

Row | SMILES | Effect on amyloid self-assembly and cell-damaging effects of Aβ40 (Aβ40 [1]) | IC50 (Aβ40 [2]) [nM] | IC50 (IAPP [3]) [nM] | Effect on Aβ42-mediated inhibition of hippocampal synaptic LTP [4] | Effect on amyloid self-assembly and cell damage by IAPP (IAPP [5])
1 | CC[C@H](C)[C@H]1C(=O)N[C@@H](CC(C)C)C(=O)N[C@@H](CO)C(=O)N[C@H](C(N)=O)CSSC[C@H](N)C(=O)N[C@@H](C)C(=O)N[C@@H]([C@@H](C)O)C(=O)N[C@@H](CCC(N)=O)C(=O)N[C@@H](CCCNC(=N)N)C(=O)N[C@@H](CC(C)C)C(=O)N[C@@H](C)C(=O)N[C@@H](CC(N)=O)C(=O)N[C@@H](Cc2ccccc2)C(=O)N[C@@H](CC(C)C)C(=O)N[C@@H](C(C)C)C(=O)N[C@@H](Cc2c[nH]cn2)C(=O)N[C@@H](CCCNC(=N)N)C(=O)N[C@@H](CCCNC(=N)N)C(=O)N[C@@H](CCCNC(=N)N)C(=O)N[C@@H](CC(N)=O)C(=O)N[C@@H](Cc2ccccc2)C(=O)N(C)CC(=O)N[C@@H](C)C(=O)N1C [Peptide 1a] (H-CATQRLANFLVHRRRNF[Sar]A[NMeI]LSC-NH2; disulfide 1-23; N-terminus assumed) | strongly suppressed | 79.8 |  |  | 
2 | CC[C@H](C)[C@H]1C(=O)N[C@@H](CC(C)C)C(=O)N[C@@H](CO)C(=O)N[C@H](C(N)=O)CSSC[C@H](N)C(=O)N[C@@H](CC(N)=O)C(=O)N[C@@H](Cc2ccccc2)C(=O)N[C@@H](CC(C)C)C(=O)N[C@@H](C(C)C)C(=O)N[C@@H](Cc2c[nH]cn2)C(=O)N[C@@H](CCCNC(=N)N)C(=O)N[C@@H](CCCNC(=N)N)C(=O)N[C@@H](CCCNC(=N)N)C(=O)N[C@@H](CC(N)=O)C(=O)N[C@@H](Cc2ccccc2)C(=O)N(C)CC(=O)N[C@@H](C)C(=O)N1C [Peptide 2a] (H-CNFLVHRRRNF[Sar]A[NMeI]LSC-NH2; disulfide 1-17; N-terminus assumed) |  | 125 | 47.6 | ameliorated | 
3 | CC[C@H](C)[C@H]1C(=O)NCC(=O)NCC(=O)N[C@H](C(N)=O)CSSC[C@H](N)C(=O)NCC(=O)N[C@@H](Cc2ccccc2)C(=O)N[C@@H](CC(C)C)C(=O)NCC(=O)NCC(=O)N[C@@H](CCCNC(=N)N)C(=O)N[C@@H](CCCNC(=N)N)C(=O)N[C@@H](CCCNC(=N)N)C(=O)NCC(=O)N[C@@H](Cc2ccccc2)C(=O)N(C)CC(=O)NCC(=O)N1C [Peptide 2b] (H-CGFLGGRRRGF[Sar]G[NMeI]GGC-NH2; disulfide 1-17) | strongly suppressed |  |  | ameliorated; also recorded: Amelioration | strongly suppressed
4 | CC[C@H](C)[C@H]1C(=O)NCC(=O)NCC(=O)N[C@@H](C(N)=O)CSSC[C@@H](N)C(=O)NCC(=O)N[C@H](Cc2ccccc2)C(=O)N[C@H](CC(C)C)C(=O)NCC(=O)NCC(=O)N[C@H](CCCNC(=N)N)C(=O)N[C@H](CCCNC(=N)N)C(=O)N[C@H](CCCNC(=N)N)C(=O)NCC(=O)N[C@H](Cc2ccccc2)C(=O)N(C)CC(=O)NCC(=O)N1C [Peptide 2e] (H-[dC]G[dF][dL]GG[dR][dR][dR]G[dF][Sar]G[NMeI]GG[dC]-NH2; disulfide 1-17) |  |  |  | ameliorated; also recorded: Amelioration | 
